The results in this text go back to PubChem BioAssay AID1347426 (Functional Genomics Laboratory (NCATS/FGL), 2020).

Out of some 31,000 sequences screened, about 1,400 (4.5%) were called active.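 How the source made its calls: active means median seed-adjusted z-score above 1 or below -1; inactive means the rest.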 Some of the results follow.

This assay is described as follows: Novel Modifiers of Survival Motor Neuron (SMN) Protein: Gene Identification via Genome-wide siRNA Screen.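 Further: luminescence tracks full-length SMN protein made from the SMN2 reporter.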 Conditions: HEK293T SMN2-luciferase reporter, siRNA knockdown, 72 h; actives lie on both sides. An outline of the steps: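 Each of three siRNAs per gene is reverse-transfected (1 pmol) into reporter HEK293T cells whose luciferase output tracks SMN protein level. After 72 h culture, ONE-Glo luminescence is control-normalized, log10-transformed and MAD-standardized; Common Seed Analysis deprioritizes seed-driven hits.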
For orientation: Reporter assays use an easily measured gene product as a stand-in for the process of interest.
Take CCAAGAAAGUGAAAGACCATT against F12: the median seed-adjusted z-score is inactive: 0.345.
To GAAUUGGGCUUGUCUACGUTT against RHBDL3 belongs inactive: 0.56; to CAACAACAGGUAUGAGAUATT against ACCN2, inactive: -0.597.
To GAACCGAGACAACUACAUUTT against TLE2 belongs inactive: 0.00566; to CUAUGAAGCCCGUCCAGAATT against HSPA5, inactive: 0.19; to GACCUCUACUAAACGCAAATT against CCNI, inactive: -0.174.
As for GGAUUUUGAUGCUUUCGUATT against IL18RAP, the median seed-adjusted z-score is inactive: -0.681.
To GAAGUGUACGCAGCAGGAATT against KCNAB3 belongs inactive: 0.0697.
Turning to CAUCCGGAUUGUUACGAGATT against EMR4, the median seed-adjusted z-score was inactive: -0.475.
To GGGAGAGCCGCACAACAUATT against SOX15 belongs inactive: -0.376.
To GACUACUUAUGAAUUUGCATT against HSD17B13 belongs inactive: -0.329.
Regarding CCAAUGUGCUCAGACGUAATT against KIF4A, the median seed-adjusted z-score was inactive: -0.156.
For the sequence CAGUGGGAACGACAACUUUTT against HNRPA1P4, the median seed-adjusted z-score was inactive: -0.906.
To CCGGAGUUACGAUGACUUUTT against SNX26 belongs inactive: -0.788; to GAACUCGCAUGGUUAUGAATT against PLCB4, inactive: -0.521; to GCUUCAUCGUGAUCGCUGATT against RPIA, inactive: 0.0803.
For GGUGGACUAAAAACCGAAATT against ART3, the median seed-adjusted z-score is inactive: -0.434.
Consider GGCCAUGGUUUGUUGGAGATT against GSTM4, for which the median seed-adjusted z-score was inactive: -0.204.
As for CCACAGUGCCCAAAACUGATT against ERG, the median seed-adjusted z-score was inactive: 0.629.
To CCAGCAGCGCGGUCUAUUATT against SOX18 belongs inactive: 0.0663; to GCUUUACCAGGUUAUGGAATT against SIK1, inactive: 0.887.
To GCAUUGGAGGUGAUCCUUUTT against SUCLG1 belongs inactive: -0.63.
To ACUGAUCUAUGAAUCUGUUTT against GSTO2 belongs inactive: 0.142; to CCACAUCUCAAGUCCACUUTT against PPP1R1A, inactive: -0.529; to GGAUCUACAUCCAUCGCUATT against ADCY8, inactive: 0.103.
GGCAUGACAUUGACUGUCATT against LOXL3: the median seed-adjusted z-score was inactive: 0.517.
To CAGGAGAAGUUUGAACUAATT against DCTN1 belongs inactive: 0.25; to AAACUACAGCGAUAUCUGATT against MICB, inactive: 0.162.
For the sequence CUCUUGAUAUCCUUACUAATT against DMRTA1, the median seed-adjusted z-score was inactive: -0.162.
To UCAACCUCAUGGACUUUAATT against SLC5A5 belongs active: 1.01; to GGUGAACGAUUUCUCCAGATT against NEIL2, inactive: -0.256; to GGAUUGACUCUAUCACUGATT against DLGAP1, inactive: 0.357.
Consider GGAUCCUAUUGAGAGGCUATT against HS2ST1, for which the median seed-adjusted z-score is inactive: 0.421.
To CGACUACCCAUACUCUCCATT against CDC34 belongs inactive: 0.
To CACUUUCGAUUCUUGGAAATT against PPP1R3C belongs inactive: 0; to AGAACGUGCCCUUAACUAATT against KCNE1, inactive: -0.347.
To AUGUGACCCUGGUGGAUAATT against SGCA belongs inactive: 0.144.
With AGAUGAAGAUCGGACUUCUTT against WDFY1, the median seed-adjusted z-score was inactive: 0.979.
To GGAUCCAUAUGAAGCAUGUTT against UGDH belongs inactive: 0.674; to GCUUUGAAUGACUCAGUGATT against DNAJC12, inactive: 0.248.
On to CCACGCUCAUCAUCUCCAATT against SLC4A2, for which the median seed-adjusted z-score was inactive: -0.539.
To GUUGCUCUCCGAAAAUUUATT against ACVR1 belongs inactive: -0.217.
To UGAUGUUCCUGUACAACUATT against SLC37A2 belongs inactive: 0.134; to GAAAAAGUGGGAUUUAGAATT against FCGR1A, inactive: 0.869.
As to CAAUCUUAGACCCAACAAATT against RAB23, the median seed-adjusted z-score is inactive: 0.45.
In the case of AGCCCUAUCUGACUUCGCATT against REPIN1, the median seed-adjusted z-score was inactive: -0.0614.
To GGGAUAGCAGUGGAAAUAATT against NUDT9 belongs inactive: 0.277.
In the case of GCAUCAUGUCUUACGCGUUTT against SNX9, the median seed-adjusted z-score is inactive: 0.684.
GCUAUGUCCUAAUAGAACATT against ZNF572: the median seed-adjusted z-score is inactive: 0.237.
With CAACUUGUUUGACGACGAATT against KLK1, the median seed-adjusted z-score was inactive: -0.216.
For the sequence CUGCAACCGUGCACACGAATT against GJD3, the median seed-adjusted z-score was inactive: -0.251.
To GGCACGUUCUGAUCCAGAUTT against ACADM belongs inactive: 0.127; to CAACUCGCUUAAUCAAGUATT against GBA3, inactive: 0.246; to CAGAUAUAAAAGCAUGUAATT against CYP39A1, inactive: 0.196.
As to GGGUAUCAAUGUGACCGAUTT against MYH9, the median seed-adjusted z-score is inactive: -0.517.
To CAAUUUUCCUGCAAGAAUATT against CD38 belongs inactive: 0.192.
Take GAUCAGUAAUAUACCACAATT against MTFMT: the median seed-adjusted z-score is inactive: -0.0119.
As to GCCUCUAUACGUCCUUCUUTT against SLC26A1, the median seed-adjusted z-score was inactive: 0.377.
To CGCGGAAACUUGUCCCUAUTT against SP2 belongs inactive: -0.617; to GCAUCAUCUCAGCACCAGATT against SLC5A12, inactive: 0.279; to CGGCCUUGAUAAACUGAAATT against SNAPC3, active: -1.72.
With GGGCCGUGCUGAUUGAGAATT against GPX2, the median seed-adjusted z-score was inactive: -0.21.
GCACUUACAUUGAAGGGUUTT against POLH: the median seed-adjusted z-score is inactive: -0.446.
For CAGUGGAUAUAUCCAGUCATT against RAB20, the median seed-adjusted z-score was inactive: -0.334.
Regarding CCAUUGUCACUGUAUUACUTT against CNIH4, the median seed-adjusted z-score was inactive: -0.0718.
To GGAUGCUAACAGGCGAUAATT against ATP9B belongs inactive: 0; to CUACUUGAAACUUUAUUUATT against CHAC1, inactive: 0.517.
Consider CAUAGAAGCGGAUACUUAUTT against GALM, for which the median seed-adjusted z-score is inactive: -0.111.
On to AGAUACUGCUCAGCCUUGATT against GUCY2E, for which the median seed-adjusted z-score was inactive: 0.61.
